This assay in a line: qHTS Assay for Lipid Storage Modulators in Drosophila S3 Cells.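 On cell number change: cells counted by Cell Tracker Red CMTPX staining in the red channel.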 Conditions: BODIPY lipid droplet fluorescence, 18-24 h; for cell number change: measured here: cell count max response, cells fed with added oleic acid. The method in brief:
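Drosophila S3 cells loaded with oleic acid (400 uM, as added) and compounds at several concentrations; lipid droplets imaged by 488-nm laser-scanning cytometry, 500–530 nm intensity and object ratio to cell channel. Percent activity normalized to 20 uM Triacsin C.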
On the technique in general: In qHTS, concentration-response curves come from the screen itself.

The mark [1] stands for this setting: measured here: lipid fluorescence (Fed channel) AC50, cells fed with added oleic acid.
Where [2] appears, read: measured here: cell number channel AC50, cells fed with added oleic acid.

SMILES strings stand for the structures. The list shows a part of the results. These are further read-outs of the screen, such as a control signal, another cell line or another target. No call is given for them. Compounds called inactive in the main read-out are mostly missing here. The note in brackets gives the kind of curve behind each potency; many fits are weak.

Broadly, the AC50 is the midpoint of the concentration-response curve, whichever way the signal moves. Higher therefore signals weaker potency.

Take `Cc1ccccc1NC(=O)Cn1nc(C)c2ccccc2c1=O`: the cell number change stood at 1.37%. The AC50 under setting [1] is 29.1 µM [rising, single point].

`CCc1ccc(O)c(N=Cc2ccccc2O)c1`: the cell number change is 1.12%.

Consider `Cc1cc(NC(=O)C(C)Sc2nnc(NCc3ccco3)s2)no1` (configuration not stated), for which the cell number change is 0.877%. The AC50 under setting [1] is 2.59 µM [falling, single point].

As to `O=S(=O)(Nc1ccccc1N1CCOCC1)c1ccc(Cl)s1`, the cell number change amounted to 0.558%. The AC50 under setting [1] was 32.6 µM [falling, single point].

On to `CCCn1c(N2CCN(CC(=O)NCc3cccs3)CC2)nc2ccccc21`, for which the AC50 was 4.11 µM [rising, single point] under setting [2] and 6.51 µM [rising, single point] under setting [1].

In the case of `CCOC(=O)c1sc(-c2ccccc2)nc1C`, the cell number change is 5.23%. For the same compound, the AC50 under setting [1] is 29.1 µM [falling, single point].

As to `O=C(/C=C/c1c(F)cccc1Cl)Nc1ccncc1`, the cell number change stood at 26.1%. Under setting [1], the AC50 was 3.26 µM [rising, single point].

In the case of `COc1ccc(-n2c(=S)[nH]c3cc(C(=O)NCCCN4CCOCC4)ccc3c2=O)cc1OC`, the cell number change worked out at 3.42%. Also, the AC50 under setting [1] was 20.6 µM [rising, single point].

For `Cc1ccc(/C=C/C(=O)N2CCN(c3ncccn3)CC2)o1`, the cell number change is 1.95%. Further, the AC50 under setting [1] is 2.59 µM [rising, partial curve].

With `COc1ccc(CNC(=O)c2c(O)c3cccc4c3n(c2=O)CCC4)cc1`, the cell number change came to 14.3%. Besides, the AC50 under setting [2] was 0.461 µM [rising, full curve]. Besides, under setting [1], the AC50 is 0.517 µM [rising, full curve, poor fit].

As for `Cc1ccsc1C(=O)OCc1csc(-c2ccccc2)n1`, the cell number change stood at 8.36%.

With `Cc1nnc(NC(=O)CSc2nccn2Cc2ccccc2)s1`, the cell number change was 16.6%. In addition, the AC50 under setting [1] is 7.31 µM [rising, single point].

With `CCOC(=O)N1CCN(S(=O)(=O)c2ccc(C(=O)Nc3nnc(C4CC4)o3)cc2)CC1`, the cell number change is 6.21%.

As for `O=C(CNC(=O)c1ccccc1F)OCCCOC(=O)CNC(=O)c1ccccc1F`, the cell number change was -26.7%. The AC50 under setting [2] is 0.13 µM [falling, full curve, poor fit].

On to `O=C(NNc1c2ccccc2nc2ccccc12)C12CC3CC(CC(C3)C1)C2`, for which the cell number change was -46%. For the same compound, under setting [2], the AC50 was 20.6 µM [falling, single point]. Further, under setting [1], the AC50 was 20.6 µM [falling, single point].

For the compound `CC(C)c1c(C(=O)N/N=C/c2ccoc2)nnn1-c1nonc1N`, the cell number change worked out at 9.73%. In addition, the AC50 under setting [1] was 29.1 µM [rising, single point].

For `COc1ccc(C(=O)NNC(=O)CSc2nnc(C3CC3)n2C)cc1`, the cell number change was 19.2%. Besides, the AC50 under setting [1] was 0.116 µM [falling, single point].

Take `CN(C)c1cc[n+](CC(=O)Nc2ccc(Oc3ccccc3)cc2)cc1`: the cell number change stood at 18.6%. The AC50 under setting [2] was 6.51 µM [falling, single point].

In the case of `CCCS(=O)(=O)N1CCC(C(=O)NCCN2CCC(Cc3ccccc3)CC2)CC1`, the cell number change was -11.1%. For the same compound, the AC50 under setting [1] is 2.91 µM [falling, full curve].

As to `COc1ccc(NS(=O)(=O)c2ccc3c(c2)OCCO3)cc1OC`, the cell number change came out at 7.89%.

For `COc1ccc(C(=O)NC2CCN(S(=O)(=O)Cc3ccccc3)CC2)c(OC)c1`, the cell number change was 7.07%. The AC50 under setting [1] is 2.59 µM [rising, partial curve].

With `C/C(=N\NC(=O)c1cc(-c2ccc(Cl)s2)[nH]n1)c1ccncc1`, the cell number change came to 5.46%. Further, the AC50 under setting [1] is 29.1 µM [rising, single point].

`CCOc1ncccc1C(=O)OCc1csc(CC(=O)Nc2ccccc2C)n1`: the cell number change was -3.61%. Moreover, the AC50 under setting [1] was 29.1 µM [falling, single point].

As to `Cc1ccc(NC(=O)c2cc3c(s2)CCCC3)cc1S(=O)(=O)Nc1ccccc1Cl`, the cell number change is -25.2%. Further, under setting [1], the AC50 is 29.1 µM [falling, single point].

As to `O=C(N[C@@H](Cc1ccccc1)C(=O)NCc1ccc(F)cc1)C1CCNCC1`, the cell number change is -54.4%. For the same compound, the AC50 under setting [2] was 20.6 µM [falling, single point].

Turning to `Cc1cccc(NC(=S)NC(=O)/C=C/c2ccco2)n1`, the cell number change is 82.4%. Further, the AC50 under setting [2] was 1.84 µM [rising, full curve]. Moreover, under setting [1], the concentration at half-maximal activity (AC50) is 1.84 µM [rising, partial curve].

Take `COc1ccc(C(=O)NCC(=O)N/N=C/C(C)=C/c2ccco2)cc1OC`: the cell number change stood at 32%. In addition, the AC50 under setting [2] was 3.26 µM [rising, partial curve]. The AC50 under setting [1] is 7.31 µM [rising, partial curve].

As to `O=C(CO/N=C/c1ccc(Cl)cc1Cl)NNC(=O)c1cccc(Cl)c1`, the cell number change came to 46.6%. In addition, the AC50 under setting [2] was 11.6 µM [rising, partial curve, poor fit]. In addition, under setting [1], the AC50 was 7.31 µM [rising, partial curve].

For `COc1ccc(N(CC(=O)Nc2ccc(F)c(F)c2)S(=O)(=O)c2c(C)n[nH]c2C)cc1`, the cell number change is -11.8%. The AC50 under setting [2] is 0.00517 µM [falling, full curve, poor fit]. In addition, the AC50 under setting [1] was 29.1 µM [falling, single point].

For the compound `CCC(CO)N=CC1=C(O)CC(C)(C)CC1=O` (configuration not stated), the cell number change was -3.35%. Besides, the AC50 under setting [2] is 0.184 µM [falling, full curve, poor fit]. Also, the half-maximal activity concentration (AC50) under setting [1] was 6.51 µM [falling, single point].

As to `O=C(Nc1ccccc1)/C(=C/c1cccc(Br)c1)NC(=O)c1ccco1`, the cell number change was -33.1%. Under setting [2], the AC50 is 16.4 µM [falling, single point]. Also, the AC50 under setting [1] is 14.6 µM [falling, partial curve, poor fit].

Turning to `CN(C(=O)c1ccco1)c1nnc(C23CC4CC(CC(C4)C2)C3)s1`, the cell number change was -19.5%. Moreover, under setting [1], the AC50 was 13 µM [falling, partial curve].

As to `O=C(NCc1ccccc1)c1ccc[n+]([O-])c1`, the cell number change is 5.96%. Further, the AC50 under setting [1] was 0.103 µM [rising, full curve, poor fit].

As for `O=C(CSc1ncnc2c1cnn2-c1ccc(Cl)cc1)NCc1ccc2c(c1)OCO2`, the cell number change amounted to 100%. Under setting [2], the AC50 was 0.231 µM [rising, partial curve, poor fit].

Regarding `CCC(C)(C)NC(=O)C(NS(=O)(=O)c1cccs1)c1ccccc1` (configuration not stated), the AC50 under setting [1] is 29.1 µM [rising, single point].

Take `CCN(CC)CC(=O)Nc1ccc2c(c1)N(C(=O)CN(CC)CC)c1ccccc1CC2`: the cell number change was -18.9%. The AC50 under setting [2] was 0.259 µM [falling, full curve, poor fit]. The half-maximal activity concentration (AC50) under setting [1] is 0.651 µM [falling, partial curve, poor fit].

For `Cc1cc(Nc2ccc([N+](=O)[O-])cc2)c2ccccc2n1`, the AC50 is 1.84 µM [falling, partial curve] under setting [2] and 5.8 µM [falling, single point] under setting [1].

Consider `Cc1ccc(C)c(NC(=O)CSc2nnc(-c3ccncc3)n2N)c1`, for which the cell number change is -0.647%.

`COc1ccc(-n2ncc3c(N4CCN(c5cc(C)ccc5C)CC4)ncnc32)cc1`: the cell number change is 11.4%. Also, under setting [1], the AC50 was 1.3 µM [rising, partial curve].

Turning to `O=C(C1=C[C@@H]2[C@H]3C(=O)N(c4ccccc4)C(=O)[C@H]3[C@@H](C(=O)c3ccc(Cl)cc3)N2C=C1)c1ccccc1`, the cell number change was -10%. In addition, the AC50 under setting [2] is 0.731 µM [falling, full curve, poor fit].

Turning to `CNS(=O)(=O)c1ccc(C)c(S(=O)(=O)NC)c1`, the cell number change was -1.77%. Moreover, the AC50 under setting [1] was 11.6 µM [falling, partial curve].

In the case of `CC(=O)N1CCCC(N2CCN(c3cccc(C(F)(F)F)c3)CC2)C1` (configuration not stated), the cell number change was 7.66%. The AC50 under setting [1] is 0.326 µM [falling, full curve, poor fit].

As to `O=C(NCCc1ccccc1)C1CCCN1C(=O)NCc1ccccc1` (configuration not stated), the cell number change is -1.82%. For the same compound, the AC50 under setting [1] was 1.84 µM [falling, full curve].

Turning to `O=C(CNC(=O)c1ccccc1)NCCc1ccc(O)c(O)c1`, the cell number change is -29.2%. Also, the AC50 under setting [2] is 0.0517 µM [falling, full curve, poor fit]. Under setting [1], the AC50 was 0.58 µM [rising, single point].

Regarding `O=S(=O)(Nc1cccc(-c2ccc3nncn3n2)c1)c1cccs1`, the AC50 is 2.31 µM [falling, partial curve, poor fit] under setting [2] and 29.1 µM [falling, single point] under setting [1].

Turning to `Cc1nn2c3c(cnc2c1-c1ccc(Cl)cc1)C(=O)CC(c1ccco1)C3` (configuration not stated), the cell number change was 5.68%. Also, under setting [1], the AC50 is 23.1 µM [rising, single point].

For `COc1ccccc1NS(=O)(=O)c1cccc(C(=O)N/N=C/c2ccc3c(c2)OCCO3)c1`, the cell number change is -57.3%. Further, under setting [2], the AC50 is 29.1 µM [falling, single point]. Besides, under setting [1], the concentration at half-maximal activity (AC50) was 5.17 µM [rising, partial curve].

`COc1cccc(OC)c1CN1CCCC(C(=O)c2ccccc2SC)C1` (configuration not stated): the cell number change was -61.1%. Besides, the AC50 under setting [2] is 32.6 µM [falling, single point]. For the same compound, the AC50 under setting [1] is 32.6 µM [falling, partial curve, poor fit].

As to `CC1(C)CC(NC(=O)c2ccccc2F)CC(C)(C)N1`, the cell number change is -19%.

Take `CCCCCCC(C)OC(=O)Nc1cccc2ccccc12` (configuration not stated): the cell number change is -29.4%. Moreover, under setting [1], the AC50 was 25.9 µM [falling, partial curve, poor fit].

Turning to `CCC(=O)Nc1ccnc(-c2cccnc2)n1`, the cell number change is 1.44%. Under setting [1], the AC50 is 20.6 µM [rising, single point].

Regarding `COc1ccc(OC)c(/C=C/C(=O)OCC(=O)Nc2nnc(-c3ccccc3)o2)c1`, the cell number change stood at 3.75%. Also, the AC50 under setting [1] was 2.06 µM [rising, partial curve, poor fit].

On to `CCC(C)(C)C1CCC2(CC1)NC(=O)N(CC(=O)NCCCc1ccccc1)C2=O` (configuration not stated), for which the cell number change is -12%.

Take `CCOP(=O)(c1ccc(N(C)C)cc1)C(O)c1cccnc1` (configuration not stated): the cell number change is 4.12%. Further, under setting [1], the AC50 was 0.517 µM [falling, partial curve, poor fit].

`CCOc1ccc(C(=O)NCC(=O)Nc2ncccc2C)cc1OCC`: the cell number change was 58.4%. In addition, the AC50 under setting [2] was 16.4 µM [rising, partial curve, poor fit].

As to `CCN(CC)C(=O)c1ccc(C(=O)c2c(C)cc(C)cc2C)cc1`, under setting [2], the AC50 is 1.84 µM [rising, partial curve, poor fit].

With `Clc1ccccc1-c1nn2c(-c3ccccn3)nnc2s1`, the cell number change is 19.4%. Also, the AC50 under setting [2] was 2.91 µM [rising, single point].

The record behind these values is PubChem BioAssay AID2685 (National Center for Advancing Translational Sciences (NCATS), 2010).
